Results reported in PMC8637366 (Slas Discovery, 2021).

Protein sequences, listed by entry. Tags and fused reporters are not part of them. Residues count along the entry.
UniProt P06276, 29-602: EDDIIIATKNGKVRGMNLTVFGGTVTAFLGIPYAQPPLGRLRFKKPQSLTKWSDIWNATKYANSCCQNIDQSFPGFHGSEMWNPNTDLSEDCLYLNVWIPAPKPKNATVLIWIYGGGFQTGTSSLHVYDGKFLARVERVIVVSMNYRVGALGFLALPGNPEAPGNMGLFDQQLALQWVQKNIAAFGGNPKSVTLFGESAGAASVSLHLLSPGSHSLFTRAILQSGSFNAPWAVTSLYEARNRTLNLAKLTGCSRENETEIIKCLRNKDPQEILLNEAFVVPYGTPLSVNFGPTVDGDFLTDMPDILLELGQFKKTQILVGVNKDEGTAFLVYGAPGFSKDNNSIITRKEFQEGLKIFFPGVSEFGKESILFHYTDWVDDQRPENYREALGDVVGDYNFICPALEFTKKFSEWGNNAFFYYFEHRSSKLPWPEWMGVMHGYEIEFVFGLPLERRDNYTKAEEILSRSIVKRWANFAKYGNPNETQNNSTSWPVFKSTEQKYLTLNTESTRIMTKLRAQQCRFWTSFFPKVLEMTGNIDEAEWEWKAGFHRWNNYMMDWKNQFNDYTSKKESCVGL

Target: Recombinant human BChE (Homo sapiens, UniProt P06276)
Type: biochemical

C#CC1(O)CCC2C3CCC4Cc5nc6nc7ccccc7n6cc5CC4(C)C3CCC21C (stereo not shown) [WIN 51708 hydrate]
inhibition against BChE in the fluorescent assay: did not show inhibition
